PubChem BioAssay AID1259405, NCATS | 2018

Test: 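Mouse-designed siRNAs used to find CHO productivity engineering targets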 (primary screen)
Cells: Chinese hamster CHO-K1 ovary cells with stable secreted eGFP expression
Reagent: single siRNA against mouse genes, 0.8 pmol siRNA per well (2 µl of 400 nM stock)
Time to read-out: 3 days
Detection: 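Per-well intracellular GFP measured by laser scanning cytometry, plus viability from ATP luminescence, each relative to plate median of non-targeting control wells, in %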
Direction: GFP, % of control: higher = more GFP per well, higher productivity; viability (ATP), % of control: higher = more viable cells (more ATP)
Active means: 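Called active when intracellular GFP, relative to negative control, is at or above 120%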
Shown is an unselected part of about 50,000 reagents tested. About 4,000 of all reagents (8%) count as active. 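Mouse siRNA library applied to hamster cells; one well for each siRNA.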 Entries without a mark were called inactive. The numbers tell different reagents against one gene apart. Reagent sequences are not shown.

| Target gene | reagent no. | GFP, % of control | viability (ATP), % of control |
| --- | --- | --- | --- |
| Cfb | 1 | 42 | 64.9 |
| Cfb | 2 | 46.7 | 67.1 |
| Or8d23 | 1 | 18.4 | 24.2 |
| Or8d23 | 2 | 100 | 81.4 |
| Or8d23 | 3 | 71.8 | 62.5 |
| Tsc22d4 | 1 | 51.2 | 52.6 |
| Tsc22d4 | 2 | 72.6 | 79.6 |
| Syt2 | 1 | 98.7 | 105 |
| Syt2 | 2 | 65.2 | 71.4 |
| Tbc1d8 | 1 | 120 | 77.9 |
| Tbc1d8 | 2 | 96.8 | 84.9 |
| Tbc1d8 | 3 | 73.9 | 77.1 |
| Spatc1 | 1 | 85.4 | 77.9 |
| Spatc1 | 2 | 88.1 | 108 |
| Spatc1 | 3 | 95.4 | 97.1 |
| Slc44a2 | 1 | 20.3 | 40.1 |
| Slc44a2 | 2 | 83 | 62.9 |
| Slc44a2 | 3 | 82.1 | 98.1 |
| Ush1g | 1 | 67.3 | 79 |
| Ush1g | 2 | 66.9 | 82.1 |
| Ush1g | 3 | 50.2 | 79.9 |
| Igf2r | 1 | 105 | 133 |
| Igf2r | 2 | 68.3 | 53.5 |
| Igf2r | 3 | 88.1 | 31.8 |
| Cabyr | 1 | 95.2 | 59.1 |
| Cabyr | 2 | 81.3 | 83.6 |
| Cabyr | 3 | 119 | 111 |
| Cfap126 | 1 | 80.9 | 84.7 |
| Cfap126 | 2 | 59.5 | 59.3 |
| Cfap126 | 3 | 87.2 | 47.4 |
| Agbl2 | 1 | 63.5 | 87.7 |
| Agbl2 | 2 | 86.3 | 123 |
| Agbl2 | 3 | 107 | 130 |
| Sfrp2 | 1 | 102 | 79.8 |
| Sfrp2 | 2 | 56.4 | 59.7 |
| Sfrp2 | 3 | 77.2 | 68.4 |

A stretch from the list above, as a working copy:
| Target gene | reagent no. | GFP, % of control | viability (ATP), % of control |
| --- | --- | --- | --- |
| Tsc22d4 | 1 | 51.2 | 52.6 |
| Tsc22d4 | 2 | 72.6 | 79.6 |
